In publication PMC3529859 (Leukemia, 2012) one finds IC50 data, which are given here for one compound.

Holding throughout (type): cell-based
The subject of test [1] is FcεRI-mediated degranulation of primary HuMCs. The test is described as follows: FcεRI-mediated degranulation of HuMCs. The settings on record: Homo sapiens, read-out: IC50 FcεRI-mediated degranulation.
The subject of a further test is HMC 1.2 cells. As to the kind of experiment: CyQuant cell proliferation assay. The following applies: Homo sapiens, 72 h, read-out: IC50 HMC 1.2 proliferation.
A further test has as its system HMC 1.1 cells. As to the kind of experiment: CyQuant cell proliferation assay. The following applies: Homo sapiens, 72 h, read-out: IC50 HMC 1.1 proliferation.

Take `CO[C@@H]1[C@H](N(C)C(=O)c2ccccc2)C[C@H]2O[C@]1(C)n1c3ccccc3c3c4c(c5c6ccccc6n2c5c31)C(=O)NC4` [PKC 412]: the IC50 in test [1] turned out to be 21 nM; in the test on HMC 1.2 cells, 138 nM; with HMC 1.1 cells it was 135 nM.
